Laboratory results: PubChem BioAssay AID1347423 (Functional Genomics Laboratory (NCATS/FGL), 2020)
Hit rate of the full screen: of about 52,000 sequences, about 210 (0.4%) were called active.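 The calls were made as follows: active = gene whose silencing raises cell survival under the drug, median off-target-corrected z-score across its silencing RNAs 2 or more; inactive = the rest.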 The list shows a part of the results.

assay: Resistance to Poly (ADP-Ribose) Polymerase inhibitor: Gene Identification via Genome-wide siRNA Screen; settings: mouse BRCA2 R2336H ES cells, olaparib, CellTiter-Glo viability; hits give high values
Outline: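 Genome-wide siRNA screen (3 siRNAs/gene, 20 nM) in mouse ES cells carrying hypomorphic BRCA2 R2336H; olaparib 500 nM added 48 h post-transfection, CellTiter-Glo viability 72 h later. Normalized to plate-median negative control; MAD z-scores, gene median, seed-adjusted.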

Sequence | z-score
GGAGAAUCCAAAGUAGAUCTT against Mycbp | inactive: 0.856
CGUGUGAGGUUUGUGAAAGTT against Gzmf | inactive: -2.41
GCAAUACCUUCUGACACAGTT against Eral1 | inactive: 0.61
GGACCUGUUCAGCAGUUUGTT against Hem1 | inactive: 1.46
CCAAACAUCAAGGAGUUUATT against 1300013B24Rik | inactive: 0.873
GGAUCUACUUAUGAGCUAGTT against 4931406I20Rik | inactive: 1.13
GGAAGAACGCGUAGAUAAGTT against Anks1 | inactive: -0.316
GGAGUUCUUCUGGACCUCATT against Ccl22 | inactive: 0.0825
GGAAAACACCUACCUGUGGTT against Slc25a3 | inactive: 0.815
CCUAUACAAAGGGAAGUGCTT against A930029K19Rik | inactive: -0.0745
GCAUCUUAACACAUGUAAATT against Zfp369 | inactive: -0.0232
CCUCAUUCAAGAAACCUCATT against Comtd1 | inactive: 0.112
GCAAGAAUUAAGUCAGUGGTT against C730015A04Rik | inactive: -0.395
UCAUGGUCAUCUUUACCCUTT against ORF61 | inactive: -0.182
GCUCCAUACACGAAUGAGCTT against Edg2 | inactive: -0.708
GGUGUACGAGAUCCAGGACTT against Eif3s6ip | inactive: 1.5
GCUUUACUUCUUCCUCAUUTT against Olfr924 | inactive: -0.698
GCAAUGAAUUAGCCUUAAATT against Pkia | inactive: -2.26
GGCAGAAUUCUUCACCUCCTT against P4ha2 | inactive: 1.2
GGCGACCUUUGUGUUUCCUTT against Loh11cr2a | inactive: 1.93
GCUUCCAUCUUUACUAAGATT against Cpt2 | inactive: -0.989
GGAACAUUGAACUGAUUUGTT against Mapre1 | inactive: 0.831
GCUGAACCUUUGAAAUUUCTT against Scmh1 | inactive: 1.29
GGACGAGAACGAUAAUUACTT against Dsc2 | inactive: 1.18
GGUCCUUGCCACUAAGCCUTT against D17Wsu155e | inactive: -0.339
GCUGCUGACUUAUAACUGGTT against BC059842 | inactive: -1.44
CCACAGUUUGACCUAAUAGTT against Prg | inactive: 1.32

Sequence | z-score
GGUACAAACACGAUCAAGGTT against Aox4 | inactive: 0.262
GGAGGAUGAAACAAGCCUUTT against Tnfsf11 | inactive: 2.71
GCCCUCUACAACUUUGACCTT against Sh3rf2 | inactive: 0.175
GGAGGGAGUGAAAACUUUCTT against 1110054N06Rik | inactive: -1.28
GCUUUUCGUUCUUAUACAUTT against Hlxb9 | inactive: 0.903
GGCGCAUGCAGAGUAUCAATT against Tcfap4 | inactive: 0.783
GGGAAAAGCUAAAAUACAATT against Gtf2h1 | inactive: 0.413
GGUGCUGAGCAAUCUCAAGTT against Slc35a4 | inactive: 0.0917
GGAGUUUUUGCAUGAAUUGTT against Folh1 | inactive: 1.05
GGACAAGGAACAGAGCCUUTT against 5830442J12Rik | inactive: -1.21
GGAGUCACACCUGAAUUGCTT against 2610507L03Rik | inactive: -0.978
CCAAAGCUGAGGUUGUAACTT against Sstr4 | inactive: -0.604
GGGAUUCUGAGCUUUCUGGTT against 2310021H06Rik | inactive: 2.08
CGUCAUGACAAACUUAGGATT against Calm1 | inactive: -0.263
CGGGAUACUUUAAAGAACATT against Shfdg1 | inactive: -1.64
GGACUAUCUCUUUAUGGAATT against Csf1 | inactive: -0.589
GGCAGUCUUGUCCCUUGUATT against 2900073G15Rik | inactive: -1.96
GGAUUGUCAUAACAGAAUUTT against Rpe65 | inactive: 1.03
CGCAUGCUGGUAAAACGGATT against BC037594 | inactive: 0.135
GGAGUCAAGCUAGAAGUUUTT against Crry | inactive: 0.323
GGCCGUUUCCUACCUCAUGTT against Cckbr | inactive: 2.16
GGAAGUCUCAUCGUAAUUCTT against D030060M11Rik | inactive: -2.13
GGGAAACAAAUGGGUUGGCTT against Bclp2 | inactive: -1.74
GCGGUCCAGACAGCAAAUATT against Ptbp2 | inactive: -0.535
GGACUCUCAGGUAAAUGCATT against Gbl | inactive: -1.35
GCAACCAAAUCUAUUGUUCTT against 4930511O11Rik | inactive: 0.534
GGCUGUCAGAACCAACUACTT against Tshb | inactive: 0.507

Exported as a markdown table: part of the list above

| Sequence | z-score |
| --- | --- |
| GGAACAUUGAACUGAUUUGTT against Mapre1 | inactive: 0.831 |
| GCUGAACCUUUGAAAUUUCTT against Scmh1 | inactive: 1.29 |
| GGACGAGAACGAUAAUUACTT against Dsc2 | inactive: 1.18 |
| GGUCCUUGCCACUAAGCCUTT against D17Wsu155e | inactive: -0.339 |
| GCUGCUGACUUAUAACUGGTT against BC059842 | inactive: -1.44 |
| CCACAGUUUGACCUAAUAGTT against Prg | inactive: 1.32 |
| GGUACAAACACGAUCAAGGTT against Aox4 | inactive: 0.262 |
| GGAGGAUGAAACAAGCCUUTT against Tnfsf11 | inactive: 2.71 |
| GCCCUCUACAACUUUGACCTT against Sh3rf2 | inactive: 0.175 |
| GGAGGGAGUGAAAACUUUCTT against 1110054N06Rik | inactive: -1.28 |
| GCUUUUCGUUCUUAUACAUTT against Hlxb9 | inactive: 0.903 |
| GGCGCAUGCAGAGUAUCAATT against Tcfap4 | inactive: 0.783 |
| GGGAAAAGCUAAAAUACAATT against Gtf2h1 | inactive: 0.413 |
| GGUGCUGAGCAAUCUCAAGTT against Slc35a4 | inactive: 0.0917 |
| GGAGUUUUUGCAUGAAUUGTT against Folh1 | inactive: 1.05 |
| GGACAAGGAACAGAGCCUUTT against 5830442J12Rik | inactive: -1.21 |
| GGAGUCACACCUGAAUUGCTT against 2610507L03Rik | inactive: -0.978 |
| CCAAAGCUGAGGUUGUAACTT against Sstr4 | inactive: -0.604 |
| GGGAUUCUGAGCUUUCUGGTT against 2310021H06Rik | inactive: 2.08 |
| CGUCAUGACAAACUUAGGATT against Calm1 | inactive: -0.263 |
| CGGGAUACUUUAAAGAACATT against Shfdg1 | inactive: -1.64 |
| GGACUAUCUCUUUAUGGAATT against Csf1 | inactive: -0.589 |
| GGCAGUCUUGUCCCUUGUATT against 2900073G15Rik | inactive: -1.96 |
| GGAUUGUCAUAACAGAAUUTT against Rpe65 | inactive: 1.03 |
| CGCAUGCUGGUAAAACGGATT against BC037594 | inactive: 0.135 |
| GGAGUCAAGCUAGAAGUUUTT against Crry | inactive: 0.323 |
| GGCCGUUUCCUACCUCAUGTT against Cckbr | inactive: 2.16 |
| GGAAGUCUCAUCGUAAUUCTT against D030060M11Rik | inactive: -2.13 |
| GGGAAACAAAUGGGUUGGCTT against Bclp2 | inactive: -1.74 |
| GCGGUCCAGACAGCAAAUATT against Ptbp2 | inactive: -0.535 |
| GGACUCUCAGGUAAAUGCATT against Gbl | inactive: -1.35 |

The list continues.

Sequence | z-score
GGCAAAUGUAGACAUGUAUTT against Defb49 | inactive: -1.47
GGUCCAGAAUGUGUCCCAGTT against A030009A06Rik | inactive: -0.144
GGAAGCAUACGAUCCUAUCTT against 4933402B14Rik | inactive: 1.79
GCUUUACCUGGAGAAAAUGTT against 4931422A03Rik | inactive: -1.74
GGGAAGAAGCUUUGUGAUUTT against 2310004I24Rik | inactive: 0.805
GCCUGAAUUUAGUGUUAAGTT against Hnmt | inactive: 0.495
GGCGACUUUUGCAUCGCUUTT against Spink2 | inactive: -0.152
GGCCACAUGAGGAAUGACGTT against Slc20a2 | inactive: 0.255
GGGAUCGAUCAAUCAUAACTT against Tcfap2c | inactive: 1.8
GGCUCCACAAACCUUCCUUTT against D830014E11Rik | inactive: -1.7
CGAUGCAACAUGACCAAGUTT against MGC118309 | inactive: 1.11
GCUGUAUUCGCUGUGCCGUTT against Siat7b | inactive: 0.098
GGAGUUCAUUCUGGAUAUCTT against Matn2 | inactive: 2.18
GGAGUAUAUCCAAAGAAUUTT against Hook2 | inactive: 0.397
GGGUAUCCUUUGGUGGUGUTT against Prss32 | inactive: -0.545
CCUACACCUAGAAAUCUAGTT against Gpr3 | inactive: 0.604
GGUCCCUGUAGAAAAACUGTT against Asrgl1 | inactive: -0.388
GGCUGUGGUGAACCUAGACTT against Fcrl3 | inactive: -0.354
CGCAGAGAGUAGAAAAUUGTT against Pdir | inactive: -0.218
GGAUCGACUGCCAAGGAAUTT against Klhdc2 | inactive: 0.737
CCAGUGGUUGCUAUGGUCUTT against Nme1 | inactive: 1.91
GGAUCAGAUGUCAGCUUCATT against Stx6 | inactive: 1.39
GGAUUCUGGAGAAUAUGAATT against Tgm5 | inactive: 0.17
CCUAUGAUGUAAUGACCCGTT against Slc25a29 | inactive: -0.488
GGAUUGGAAGAAAAAGGAGTT against Lair1 | inactive: -1.19
GGCCUUGAGACUAUCAAUGTT against Emilin3 | inactive: 0.405
GCAGAAGUGCUAUUCUUGUTT against Cnbp1 | inactive: 1.46

Sequence | z-score
CGCCAGGUCAAGGAAUGGUTT against Sh2d1c | inactive: 0.639
CCAGCAAGAGUGUGUGUAATT against MGC67174 | inactive: -1.05
GGCAGAAAAGAUAGCAUCUTT against Cops4 | inactive: -3.04
GGACUUGAAGCUGCACCUATT against Atp6v0d1 | inactive: 1.82
GCCGGUUGGAACAAAAGGCTT against E130018O15Rik | inactive: 0.373
GGAAACUGUGGAUGAAAAGTT against Olfr1230 | inactive: 0.256
GGUGAAAGACACUUGAAUUTT against Cdk2 | inactive: 1.11
GGUCCGAGAGACAUUGGCATT against Lmx1b | inactive: 1.88
GGAGAGGAUCCAAUGUCUCTT against Ptpn5 | inactive: 1.21
GGCUAUACACGCAUCAAGCTT against Dtx1 | inactive: 1.91
GCGACAAGACUUCUUGAGCTT against Epha8 | inactive: -0.918
CCCUAUACUCAUUUGUAAGTT against Ube2a | inactive: -0.119
GCACAAAUAAAGAUAAGAGTT against Uox | inactive: 0.494
CGUACAAGACCAACAGAAGTT against D8Ertd82e | inactive: 2.36
GGUAUUUCCUAAGUUGCGCTT against Rutbc2 | inactive: -0.138
GCCCUCGUUCAUACCGUAUTT against Olfr332 | inactive: 0.911
GGCUGCUGUUAACAAGCUGTT against Wdr13 | inactive: -0.38
GGCAUCCUGUGUUUUAACUTT against Mmp3 | inactive: 0.452
CCGCAUGACACGACAUGUATT against BC034097 | active: 2.56
CGGAAUCUAGGCUUGUGCATT against Timp1 | inactive: -1.09
CCAAGUAUUUUUCUCCUUATT against Stk38 | inactive: -0.963
GGCUAAGACUAUGUUGUAATT against Mcsp | inactive: -0.0249
CCUCGUUCCUAUCAUUAACTT against Sdccag8 | inactive: 0.858
GGUCUUCCUGUUCUUGCUCTT against Olfr1009 | inactive: 0.917
